Here are results for 21 molecules from paper doi:10.1101/2023.05.06.539678.

Sequences of proteins named here, by UniProt entry; tags and fusion partners are left off. A change or cut given only in a name is not applied to a line headed by its entry. Residues count along the entry.
UniProt Q14677: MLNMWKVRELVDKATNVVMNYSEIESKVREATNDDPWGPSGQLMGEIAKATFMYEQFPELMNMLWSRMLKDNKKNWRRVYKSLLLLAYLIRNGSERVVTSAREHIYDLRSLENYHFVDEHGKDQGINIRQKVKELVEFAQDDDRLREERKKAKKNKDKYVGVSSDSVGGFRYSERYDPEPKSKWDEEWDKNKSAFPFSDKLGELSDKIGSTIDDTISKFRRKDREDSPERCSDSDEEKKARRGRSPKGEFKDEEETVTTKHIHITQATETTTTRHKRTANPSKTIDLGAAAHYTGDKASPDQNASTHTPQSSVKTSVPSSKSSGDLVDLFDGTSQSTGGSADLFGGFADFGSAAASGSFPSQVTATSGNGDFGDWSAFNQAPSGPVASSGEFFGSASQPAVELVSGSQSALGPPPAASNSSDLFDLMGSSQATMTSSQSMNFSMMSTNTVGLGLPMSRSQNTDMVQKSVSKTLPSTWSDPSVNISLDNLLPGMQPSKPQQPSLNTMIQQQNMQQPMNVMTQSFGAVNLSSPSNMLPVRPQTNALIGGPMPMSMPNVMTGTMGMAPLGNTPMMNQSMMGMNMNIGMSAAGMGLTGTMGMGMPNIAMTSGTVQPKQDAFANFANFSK
UniProt Q03135: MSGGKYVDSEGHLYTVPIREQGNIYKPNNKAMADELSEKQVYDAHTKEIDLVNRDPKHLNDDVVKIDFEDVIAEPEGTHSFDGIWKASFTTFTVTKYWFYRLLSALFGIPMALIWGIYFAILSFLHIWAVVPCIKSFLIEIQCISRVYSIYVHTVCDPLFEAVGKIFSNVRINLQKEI
UniProt Q15836: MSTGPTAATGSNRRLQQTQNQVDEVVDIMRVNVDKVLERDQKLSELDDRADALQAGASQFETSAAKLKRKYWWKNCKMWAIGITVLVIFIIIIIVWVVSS
UniProt P63027: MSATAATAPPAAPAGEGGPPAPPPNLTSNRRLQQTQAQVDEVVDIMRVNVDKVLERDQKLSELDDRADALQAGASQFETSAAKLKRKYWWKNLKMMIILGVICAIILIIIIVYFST
UniProt Q13596: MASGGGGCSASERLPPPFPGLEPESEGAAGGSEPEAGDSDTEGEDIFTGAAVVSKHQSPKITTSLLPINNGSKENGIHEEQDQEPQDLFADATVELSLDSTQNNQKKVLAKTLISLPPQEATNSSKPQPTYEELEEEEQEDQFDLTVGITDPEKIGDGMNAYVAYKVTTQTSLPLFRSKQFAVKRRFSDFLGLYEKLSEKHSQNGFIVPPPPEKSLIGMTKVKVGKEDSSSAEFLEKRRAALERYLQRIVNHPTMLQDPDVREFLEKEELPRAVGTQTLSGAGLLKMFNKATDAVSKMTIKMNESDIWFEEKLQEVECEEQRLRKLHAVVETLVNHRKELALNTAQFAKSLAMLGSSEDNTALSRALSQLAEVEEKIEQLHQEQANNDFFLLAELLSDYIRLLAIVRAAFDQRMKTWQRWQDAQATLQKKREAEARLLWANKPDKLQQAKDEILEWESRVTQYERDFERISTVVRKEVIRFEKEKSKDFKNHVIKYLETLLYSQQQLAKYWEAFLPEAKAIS
UniProt P11717, residues 41-2491: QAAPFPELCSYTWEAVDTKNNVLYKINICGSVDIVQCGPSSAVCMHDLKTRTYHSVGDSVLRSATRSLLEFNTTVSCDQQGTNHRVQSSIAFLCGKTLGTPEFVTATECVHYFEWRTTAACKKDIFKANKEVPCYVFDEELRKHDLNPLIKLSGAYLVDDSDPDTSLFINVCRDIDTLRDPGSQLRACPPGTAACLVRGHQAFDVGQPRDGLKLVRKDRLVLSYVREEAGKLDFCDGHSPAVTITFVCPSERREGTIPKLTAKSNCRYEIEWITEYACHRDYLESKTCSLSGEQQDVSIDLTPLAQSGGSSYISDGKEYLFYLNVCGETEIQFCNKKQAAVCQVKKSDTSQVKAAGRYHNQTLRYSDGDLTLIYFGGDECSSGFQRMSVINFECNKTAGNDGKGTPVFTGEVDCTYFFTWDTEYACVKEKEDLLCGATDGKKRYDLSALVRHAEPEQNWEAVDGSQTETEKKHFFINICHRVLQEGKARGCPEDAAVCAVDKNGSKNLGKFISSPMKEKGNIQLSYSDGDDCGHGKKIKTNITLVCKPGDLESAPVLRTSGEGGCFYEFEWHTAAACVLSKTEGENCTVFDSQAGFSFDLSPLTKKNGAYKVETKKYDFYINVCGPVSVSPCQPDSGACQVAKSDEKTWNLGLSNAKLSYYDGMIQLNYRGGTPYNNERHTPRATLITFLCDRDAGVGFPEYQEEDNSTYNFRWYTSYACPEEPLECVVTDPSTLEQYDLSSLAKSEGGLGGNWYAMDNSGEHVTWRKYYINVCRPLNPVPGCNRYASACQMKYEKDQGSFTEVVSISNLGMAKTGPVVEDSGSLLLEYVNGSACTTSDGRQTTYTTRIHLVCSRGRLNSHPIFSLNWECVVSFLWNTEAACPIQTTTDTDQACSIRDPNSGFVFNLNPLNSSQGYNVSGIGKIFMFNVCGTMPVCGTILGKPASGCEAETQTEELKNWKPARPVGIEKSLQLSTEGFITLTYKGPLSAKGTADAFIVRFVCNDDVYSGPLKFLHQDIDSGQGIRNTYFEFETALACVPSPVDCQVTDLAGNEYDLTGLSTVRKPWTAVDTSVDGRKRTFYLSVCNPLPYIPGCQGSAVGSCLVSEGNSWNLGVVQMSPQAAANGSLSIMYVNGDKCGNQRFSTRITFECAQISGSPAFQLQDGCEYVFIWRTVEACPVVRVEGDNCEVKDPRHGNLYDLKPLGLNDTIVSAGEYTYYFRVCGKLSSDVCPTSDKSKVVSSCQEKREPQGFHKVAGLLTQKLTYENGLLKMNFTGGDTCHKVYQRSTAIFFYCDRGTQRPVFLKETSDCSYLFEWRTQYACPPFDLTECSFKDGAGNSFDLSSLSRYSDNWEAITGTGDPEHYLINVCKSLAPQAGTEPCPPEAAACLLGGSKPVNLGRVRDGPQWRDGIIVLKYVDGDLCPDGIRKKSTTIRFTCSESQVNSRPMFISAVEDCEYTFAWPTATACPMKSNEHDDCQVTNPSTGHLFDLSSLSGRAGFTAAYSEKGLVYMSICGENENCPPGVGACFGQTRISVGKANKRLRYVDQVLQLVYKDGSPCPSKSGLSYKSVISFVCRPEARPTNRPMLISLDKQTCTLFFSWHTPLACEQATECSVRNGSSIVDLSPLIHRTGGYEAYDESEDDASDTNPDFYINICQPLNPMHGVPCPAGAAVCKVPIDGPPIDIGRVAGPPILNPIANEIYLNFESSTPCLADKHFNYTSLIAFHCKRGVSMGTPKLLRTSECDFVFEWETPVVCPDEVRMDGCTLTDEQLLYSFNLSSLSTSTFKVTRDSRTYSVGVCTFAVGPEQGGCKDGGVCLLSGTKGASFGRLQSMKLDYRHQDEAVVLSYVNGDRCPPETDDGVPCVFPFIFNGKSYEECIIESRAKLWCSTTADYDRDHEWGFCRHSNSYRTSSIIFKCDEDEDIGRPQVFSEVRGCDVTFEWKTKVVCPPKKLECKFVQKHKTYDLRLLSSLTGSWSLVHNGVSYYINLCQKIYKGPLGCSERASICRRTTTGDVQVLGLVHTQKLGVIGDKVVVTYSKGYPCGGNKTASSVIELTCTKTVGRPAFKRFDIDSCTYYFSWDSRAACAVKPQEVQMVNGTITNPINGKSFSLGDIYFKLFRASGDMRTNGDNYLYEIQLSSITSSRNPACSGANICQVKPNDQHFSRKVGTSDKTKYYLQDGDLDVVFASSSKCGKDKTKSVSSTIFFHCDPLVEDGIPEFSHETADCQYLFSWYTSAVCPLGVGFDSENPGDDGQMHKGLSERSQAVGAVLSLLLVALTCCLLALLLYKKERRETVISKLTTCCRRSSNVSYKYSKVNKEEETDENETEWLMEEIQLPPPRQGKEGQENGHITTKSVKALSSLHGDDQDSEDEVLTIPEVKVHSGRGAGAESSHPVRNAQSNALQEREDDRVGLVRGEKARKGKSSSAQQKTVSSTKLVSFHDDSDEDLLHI
UniProt Q92609: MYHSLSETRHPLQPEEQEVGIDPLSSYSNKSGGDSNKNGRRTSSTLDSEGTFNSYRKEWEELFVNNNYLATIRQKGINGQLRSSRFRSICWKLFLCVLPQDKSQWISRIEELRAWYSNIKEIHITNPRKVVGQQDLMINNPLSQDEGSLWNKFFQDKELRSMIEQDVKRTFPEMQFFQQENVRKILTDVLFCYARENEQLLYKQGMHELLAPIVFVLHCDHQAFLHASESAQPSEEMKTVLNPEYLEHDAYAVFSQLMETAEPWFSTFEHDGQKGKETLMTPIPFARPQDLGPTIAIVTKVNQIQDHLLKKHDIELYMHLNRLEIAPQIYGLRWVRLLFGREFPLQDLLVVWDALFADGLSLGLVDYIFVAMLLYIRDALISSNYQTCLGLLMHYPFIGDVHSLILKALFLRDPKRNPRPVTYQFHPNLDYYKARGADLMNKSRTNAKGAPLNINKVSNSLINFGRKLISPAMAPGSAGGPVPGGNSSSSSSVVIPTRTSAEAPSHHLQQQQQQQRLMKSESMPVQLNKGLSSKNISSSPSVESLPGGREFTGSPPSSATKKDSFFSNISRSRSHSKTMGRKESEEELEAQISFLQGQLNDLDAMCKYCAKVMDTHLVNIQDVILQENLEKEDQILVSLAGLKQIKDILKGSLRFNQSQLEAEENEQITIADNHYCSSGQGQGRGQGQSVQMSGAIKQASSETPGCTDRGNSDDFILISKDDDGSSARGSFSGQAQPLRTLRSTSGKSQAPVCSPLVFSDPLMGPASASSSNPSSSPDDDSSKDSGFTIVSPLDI
UniProt P05556: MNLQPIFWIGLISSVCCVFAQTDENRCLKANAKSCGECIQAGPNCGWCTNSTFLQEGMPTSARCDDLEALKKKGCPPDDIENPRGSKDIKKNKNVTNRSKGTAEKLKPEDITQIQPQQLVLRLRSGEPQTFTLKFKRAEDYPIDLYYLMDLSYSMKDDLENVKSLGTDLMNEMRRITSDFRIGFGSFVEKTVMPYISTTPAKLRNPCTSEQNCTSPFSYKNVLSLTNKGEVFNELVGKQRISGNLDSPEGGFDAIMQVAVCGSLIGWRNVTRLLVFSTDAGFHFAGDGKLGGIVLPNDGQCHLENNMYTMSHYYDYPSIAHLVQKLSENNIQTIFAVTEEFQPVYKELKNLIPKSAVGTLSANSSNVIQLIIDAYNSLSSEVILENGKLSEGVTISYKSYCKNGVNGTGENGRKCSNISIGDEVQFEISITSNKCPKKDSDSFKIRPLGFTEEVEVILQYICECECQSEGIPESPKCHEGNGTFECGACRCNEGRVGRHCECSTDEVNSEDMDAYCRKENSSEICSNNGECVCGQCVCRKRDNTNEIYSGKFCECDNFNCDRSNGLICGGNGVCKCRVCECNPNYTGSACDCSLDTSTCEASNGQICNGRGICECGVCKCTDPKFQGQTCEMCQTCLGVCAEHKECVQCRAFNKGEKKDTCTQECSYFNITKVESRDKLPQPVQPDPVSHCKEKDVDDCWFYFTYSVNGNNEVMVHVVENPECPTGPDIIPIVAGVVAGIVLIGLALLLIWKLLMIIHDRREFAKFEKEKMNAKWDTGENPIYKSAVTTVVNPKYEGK
UniProt P61011: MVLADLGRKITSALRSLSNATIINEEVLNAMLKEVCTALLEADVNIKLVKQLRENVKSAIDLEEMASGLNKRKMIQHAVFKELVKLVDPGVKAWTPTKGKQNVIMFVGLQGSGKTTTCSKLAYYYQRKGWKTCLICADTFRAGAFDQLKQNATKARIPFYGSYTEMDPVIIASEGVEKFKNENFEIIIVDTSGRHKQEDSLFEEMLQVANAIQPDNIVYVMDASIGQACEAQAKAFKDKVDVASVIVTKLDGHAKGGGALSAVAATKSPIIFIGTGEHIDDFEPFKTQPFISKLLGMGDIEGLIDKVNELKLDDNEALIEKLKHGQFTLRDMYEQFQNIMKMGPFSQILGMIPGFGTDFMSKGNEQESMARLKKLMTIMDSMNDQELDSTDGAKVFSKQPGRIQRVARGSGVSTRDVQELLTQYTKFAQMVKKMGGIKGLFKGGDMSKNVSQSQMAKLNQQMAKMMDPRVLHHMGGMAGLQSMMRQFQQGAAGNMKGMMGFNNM
UniProt Q08722, residues 19-323: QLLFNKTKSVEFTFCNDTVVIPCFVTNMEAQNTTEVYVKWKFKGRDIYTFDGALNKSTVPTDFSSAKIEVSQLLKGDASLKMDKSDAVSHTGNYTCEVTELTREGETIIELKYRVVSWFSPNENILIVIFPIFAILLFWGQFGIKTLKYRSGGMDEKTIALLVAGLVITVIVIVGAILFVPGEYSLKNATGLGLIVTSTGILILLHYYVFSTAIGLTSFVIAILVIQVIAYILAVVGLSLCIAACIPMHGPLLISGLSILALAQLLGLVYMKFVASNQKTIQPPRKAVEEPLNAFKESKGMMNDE

These are yes or no findings as the source states them, for the method shown. In cells and extracts the contact can be indirect. A yes stands for co-enrichment or nearness to the bait. Other partners may have been found. For some of these results: No binding means not detected with the bait. Sequences can lack the tags named with a protein.

To fix the notation:
T1: EMP3 WT tagged with Myc-glycine-serine linker-BioID2 at the C-terminal end (UniProt P54852)
T1 sequence: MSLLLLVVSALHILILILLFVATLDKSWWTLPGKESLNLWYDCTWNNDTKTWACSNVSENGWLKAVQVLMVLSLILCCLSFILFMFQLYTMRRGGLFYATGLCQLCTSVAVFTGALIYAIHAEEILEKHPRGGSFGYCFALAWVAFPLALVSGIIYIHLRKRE

T2: EMP3 N47A tagged with Myc-glycine-serine linker-BioID2 at the C-terminal end (UniProt P54852)
T2 sequence: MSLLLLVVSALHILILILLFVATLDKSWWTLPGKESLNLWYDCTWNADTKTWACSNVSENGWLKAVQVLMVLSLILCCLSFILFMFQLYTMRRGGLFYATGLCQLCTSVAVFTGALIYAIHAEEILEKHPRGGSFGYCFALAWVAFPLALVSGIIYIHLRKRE

B1: DDOST (protein, UniProt P39656 43-456)
chain: SGPRTLVLLDNLNVRETHSLFFRSLKDRGFELTFKTADDPSLSLIKYGEFLYDNLIIFSPSVEDFGGNINVETISAFIDGGGSVLVAASSDIGDPLRELGSECGIEFDEEKTAVIDHHNYDISDLGQHTLIVADTENLLKAPTIVGKSSLNPILFRGVGMVADPDNPLVLDILTGSSTSYSFFPDKPITQYPHAVGKNTLLIAGLQARNNARVIFSGSLDFFSDSFFNSAVQKAAPGSQRYSQTGNYELAVALSRWVFKEEGVLRVGPVSHHRVGETAPPNAYTVTDLVEYSIVIQQLSNGKWVPFDGDDIQLEFVRIDPFVRTFLKKKGGKYSVQFKLPDVYGVFQFKVDYNRLGYTHLYSSTQVSVRPLQHTQYERFIPSAYPYYASAFSMMLGLFIFSIVFLHMKEKEKSD
B2: SRPRB (protein, UniProt Q9Y5M8 1-271)
chain: MASADSRRVADGGGAGGTFQPYLDTLRQELQQTDPTLLSVVVAVLAVLLTLVFWKLIRSRRSSQRAVLLVGLCDSGKTLLFVRLLTGLYRDTQTSITDSCAVYRVNNNRGNSLTLIDLPGHESLRLQFLERFKSSARAIVFVVDSAAFQREVKDVAEFLYQVLIDSMGLKNTPSFLIACNKQDIAMAKSAKLIQQQLEKELNTLRVTRSAAPSTLDSSSTAPAQLGKKGKEFEFSQLPLKVEFLECSAKGGRGDVGSADIQDLEKWLAKIA
B3: VPS53 (protein, UniProt Q5VIR6 1-832)
chain: MMEEEELEFVEELEAVLQLTPEVQLAIEQVFPSQDPLDRADFNAVEYINTLFPTEQSLANIDEVVNKIRLKIRRLDDNIRTVVRGQTNVGQDGRQALEEAQKAIQQLFGKIKDIKDKAEKSEQMVKEITRDIKQLDHAKRHLTTSITTLNHLHMLAGGVDSLEAMTRRRQYGEVANLLQGVMNVLEHFHKYMGIPQIRQLSERVKAAQTELGQQILADFEEAFPSQGTKRPGGPSNVLRDACLVANILDPRIKQEIIKKFIKQHLSEYLVLFQENQDVAWLDKIDRRYAWIKRQLVDYEEKYGRMFPREWCMAERIAVEFCHVTRAELAKIMRTRAKEIEVKLLLFAIQRTTNFEGFLAKRFSGCTLTDGTLKKLESPPPSTNPFLEDEPTPEMEELATEKGDLDQPKKPKAPDNPFHGIVSKCFEPHLYVYIESQDKNLGELIDRFVADFKAQGPPKPNTDEGGAVLPSCADLFVYYKKCMVQCSQLSTGEPMIALTTIFQKYLREYAWKILSGNLPKTTTSSGGLTISSLLKEKEGSEVAKFTLEELCLICNILSTAEYCLATTQQLEEKLKEKVDVSLIERINLTGEMDTFSTVISSSIQLLVQDLDAACDPALTAMSKMQWQNVEHVGDQSPYVTSVILHIKQNVPIIRDNLASTRKYFTQFCVKFANSFIPKFITHLFKCKPISMVGAEQLLLDTHSLKMVLLDLPSISSQVVRKAPASYTKIVVKGMTRAEMILKVVMAPHEPLVVFVDNYIKLLTDCNTETFQKILDMKGLKRSEQSSMLELLRQRLPAPPSGAESSGSLSLTAPTPEQESSRIRKLEKLIKKRL
B4: FLOT1 (protein, UniProt O75955 1-427)
chain: MFFTCGPNEAMVVSGFCRSPPVMVAGGRVFVLPCIQQIQRISLNTLTLNVKSEKVYTRHGVPISVTGIAQVKIQGQNKEMLAAACQMFLGKTEAEIAHIALETLEGHQRAIMAHMTVEEIYKDRQKFSEQVFKVASSDLVNMGISVVSYTLKDIHDDQDYLHSLGKARTAQVQKDARIGEAEAKRDAGIREAKAKQEKVSAQYLSEIEMAKAQRDYELKKAAYDIEVNTRRAQADLAYQLQVAKTKQQIEEQRVQVQVVERAQQVAVQEQEIARREKELEARVRKPAEAERYKLERLAEAEKSQLIMQAEAEAASVRMRGEAEAFAIGARARAEAEQMAKKAEAFQLYQEAAQLDMLLEKLPQVAEEISGPLTSANKITLVSSGSGTMGAAKVTGEVLDILTRLPESVERLTGVSISQVNHKPLRTA
B5: VTI1B (protein, UniProt Q9UEU0 1-232)
chain: MASSAASSEHFEKLHEIFRGLHEDLQGVPERLLGTAGTEEKKKLIRDFDEKQQEANETLAEMEEELRYAPLSFRNPMMSKLRNYRKDLAKLHREVRSTPLTATPGGRGDMKYGIYAVENEHMNRLQSQRAMLLQGTESLNRATQSIERSHRIATETDQIGSEIIEELGEQRDQLERTKSRLVNTSENLSKSRKILRSMSRKVTTNKLLLSIIILLELAILGGLVYYKFFRSH
B6: STT3A (protein, UniProt P46977 1-705)
chain: MTKFGFLRLSYEKQDTLLKLLILSMAAVLSFSTRLFAVLRFESVIHEFDPYFNYRTTRFLAEEGFYKFHNWFDDRAWYPLGRIIGGTIYPGLMITSAAIYHVLHFFHITIDIRNVCVFLAPLFSSFTTIVTYHLTKELKDAGAGLLAAAMIAVVPGYISRSVAGSYDNEGIAIFCMLLTYYMWIKAVKTGSICWAAKCALAYFYMVSSWGGYVFLINLIPLHVLVLMLTGRFSHRIYVAYCTVYCLGTILSMQISFVGFQPVLSSEHMAAFGVFGLCQIHAFVDYLRSKLNPQQFEVLFRSVISLVGFVLLTVGALLMLTGKISPWTGRFYSLLDPSYAKNNIPIIASVSEHQPTTWSSYYFDLQLLVFMFPVGLYYCFSNLSDARIFIIMYGVTSMYFSAVMVRLMLVLAPVMCILSGIGVSQVLSTYMKNLDISRPDKKSKKQQDSTYPIKNEVASGMILVMAFFLITYTFHSTWVTSEAYSSPSIVLSARGGDGSRIIFDDFREAYYWLRHNTPEDAKVMSWWDYGYQITAMANRTILVDNNTWNNTHISRVGQAMASTEEKAYEIMRELDVSYVLVIFGGLTGYSSDDINKFLWMVRIGGSTDTGKHIKENDYYTPTGEFRVDREGSPVLLNCLMYKMCYYRFGQVYTEAKRPPGFDRVRNAEIGNKDFELDVLEEAYTTEHWLVRIYKVKDLDNRGLSRT

The target of the first assay is T1, EMP3 WT tagged with Myc-glycine-serine linker-BioID2 at the C-terminal end. The assay can be described thus: proximity labelling.
As to “CD44 (from UniProt P16070 21-742) (receptor)”, the binding entry is reported as “binds”. Still for that read-out and setting: the entry for CLINT1 (from UniProt Q14677 1-625) is “binds”; for CAV1 (from UniProt Q03135 1-178) it is “binds”; for VAMP3 (from UniProt Q15836 1-100) it is “binds”. The same measure, in the same setting: the value for VAMP2 (from UniProt P63027 1-116) was “binds”. On the same count and under the same terms, the value for ATP5B (from UniProt P06576 48-529) was “binds”; that for SNX1 (from UniProt Q13596 1-522) was “binds”.

On to “IGF2R (from UniProt P11717 41-2491) (receptor)”, for which the binding result is on record as “binds”.

In the case of “ITGA5 (human (endogenous in U-118)) (receptor)”, the binding result is reported as “binds”.

With TBC1D5 (from UniProt Q92609 1-795), the binding result is recorded as “binds”.

With “LRP1 (human (endogenous in U-118)) (receptor)”, the binding entry was “binds”. The same measure, in the same setting: the value for “EGFR (from UniProt P00533 25-1210) (receptor)” was “binds”; that for “ITGB1 (from UniProt P05556 21-798) (receptor)” was “binds”; that for SRP54 (from UniProt P61011 1-504) was “binds”. With CD47 (from UniProt Q08722 19-323), the binding entry was “binds”.

Another assay deals with T2, EMP3 N47A tagged with Myc-glycine-serine linker-BioID2 at the C-terminal end. Briefly: proximity labelling.
As for B1, the binding entry was “no binding”.

In the next assay the target is T1, EMP3 WT tagged with Myc-glycine-serine linker-BioID2 at the C-terminal end. Briefly: proximity labelling. The source holds these as a separate data set.
Consider B2, for which the binding result is on record as “binds”. Still for that read-out and setting: the entry for B3 is “binds”; for B1 it is “binds”; for B4 it is “binds”.

As for B5, the binding entry was “binds”. Still for that read-out and setting: the value for B6 was “binds”.
